In publication PMC3320862, “Structural and Functional Analysis of the Symmetrical Type I Restriction Endonuclease R.EcoR124INT” (PLOS One, 2012):
No constants are given. Whether binding was seen depends on the method and setting. Some entries that bind do so weakly or less than the wild type.

Molecular target: T1, M.EcoR124INT methyltransferase (UniProt P10484 1-520; P10485 1-215)
T1 construct: HsdM (modification subunit, M) of the Type I restriction-modification system EcoR124I; SNT: residues 1-215 of the parent specificity subunit HsdS (S) of EcoR124I, holding the N-terminal target recognition domain and the central conserved region; Complex formed beforehand (M and SNT), to which HsdR was added; M2 stoichiometry is printed for Type I MTases in general (M2S); 'two modified SNT …
T1 sequence (looked up) 1: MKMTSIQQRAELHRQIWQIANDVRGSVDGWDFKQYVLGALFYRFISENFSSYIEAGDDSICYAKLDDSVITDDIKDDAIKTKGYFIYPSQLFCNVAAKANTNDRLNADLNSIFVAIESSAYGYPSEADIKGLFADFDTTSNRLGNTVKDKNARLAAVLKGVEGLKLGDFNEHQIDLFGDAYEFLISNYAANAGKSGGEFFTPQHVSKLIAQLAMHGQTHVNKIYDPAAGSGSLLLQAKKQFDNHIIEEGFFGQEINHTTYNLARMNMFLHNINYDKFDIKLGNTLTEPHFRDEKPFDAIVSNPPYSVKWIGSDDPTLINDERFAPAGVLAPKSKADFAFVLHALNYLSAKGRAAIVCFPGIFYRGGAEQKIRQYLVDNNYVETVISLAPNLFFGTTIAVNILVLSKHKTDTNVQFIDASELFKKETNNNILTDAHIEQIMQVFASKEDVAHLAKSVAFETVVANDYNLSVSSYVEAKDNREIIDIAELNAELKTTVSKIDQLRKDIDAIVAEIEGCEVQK
T1 sequence (looked up) 2: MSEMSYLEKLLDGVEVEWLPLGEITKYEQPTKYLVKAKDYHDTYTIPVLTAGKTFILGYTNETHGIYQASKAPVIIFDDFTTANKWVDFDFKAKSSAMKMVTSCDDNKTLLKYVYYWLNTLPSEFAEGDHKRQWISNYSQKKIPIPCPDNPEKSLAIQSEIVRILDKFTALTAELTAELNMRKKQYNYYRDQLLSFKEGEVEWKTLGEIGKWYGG
Assay: AUC; sedimentation velocity, HsdR:MTase at 1:1, free protein and with DNA; data not shown; both purified

B1: HsdR from EcoR124I (enzyme, UniProt P10486 1-1038, looked up)
chain: MTHQTHTIAESNNFIVLDKYIKAEPTGDSYQSESDLERELIQDLRNQGYEFISVKSQSAMLANVREQLQNLNGVVFNDSEWRRFTEQYLDNPSDGILDKTRKIHIDYICDFIFDDERLENIYLIDKKNLMRNKVQIIQQFEQAGSHANRYDVTILVNGLPLVQIELKKRGVAIREAFNQIHRYSKESFNSENSLFKYLQLFVISNGTDTRYFANTTKRDKNSFDFTMNWAKSDNTLIKDLKDFTATCFQKHTLLNVLVNYSVFDSSQTLLVMRPYQIAATERILWKIKSSFTAKNWSKPESGGYIWHTTGSGKTLTSFKAARLATELDFIDKVFFVVDRKDLDYQTMKEYQRFSPDSVNGSENTAGLKRNLDKDDNKIIVTTIQKLNNLMKAESDLPVYNQQVVFIFDECHRSQFGEAQKNLKKKFKRYYQFGFTGTPIFPENALGSETTASVFGRELHSYVITDAIRDEKVLKFKVDYNDVRPQFKSLETETDEKKLSAAENQQAFLHPMRIQEITQYILNNFRQKTHRTFPGSKGFNAMLAVSSVDAAKAYYATFKRLQEEAANKSATYKPLRIATIFSFAANEEQNAIGEISDETFDTSAMDSSAKEFLDAAIREYNSHFKTNFSTDSNGFQNYYRDLAQRVKNQDIDLLIVVGMFLTGFDAPTLNTLFVDKNLRYHGLMQAFSRTNRIYDATKTFGNIVTFRDLERSTIDAITLFGDKNTKNVVLEKSYTEYMEGFTDAATGEAKRGFMTVVSELEQRFPDPTSIESEKEKKDFVKLFGEYLRAENILQNYDEFATLKALQQIDLSDPVAVEKFKAEHYVDDEKFAELQTIRLPADRKIQDYRSAYNDIRDWQRREKEAEKKEKSTTDWDDVVFEVDLLKSQEINLDYILGLIFEHNRQNKGKGEMIEEVKRLIRSSLGNRAKEGLVVDFIQQTNLDDLPDKASIIDAFFTFAQREQQREAEALIKEENLNEDAAKRYIRTSLKREYATENGTELNETLPKLSPLNPQYKTKKQAVFQKIVSFIEKFKGVGGKI
notes: HsdR (restriction / motor subunit) of the Type I restriction-modification system EcoR124I; about 120 kDa as printed; For one SANS sample the same protein was made about 75% deuterated (85% D2O minimal medium); also called R subunit; motor subunit; source: expressed and purified as described previously [24]; deuterated form from BL21 (DE3) with the expression plasmid pBGSR124
- binding: binds
